In PMC12390678:
These are yes or no findings as the source states them, for the method shown. Binding seen in cells or lysates may run through a third protein. Some results given as binding are weak or reduced against the parent protein; the word gives no strength.

The chains behind the UniProt entries cited, without tags or fusion partners. Residues count along the entry.
UniProt Q8N122: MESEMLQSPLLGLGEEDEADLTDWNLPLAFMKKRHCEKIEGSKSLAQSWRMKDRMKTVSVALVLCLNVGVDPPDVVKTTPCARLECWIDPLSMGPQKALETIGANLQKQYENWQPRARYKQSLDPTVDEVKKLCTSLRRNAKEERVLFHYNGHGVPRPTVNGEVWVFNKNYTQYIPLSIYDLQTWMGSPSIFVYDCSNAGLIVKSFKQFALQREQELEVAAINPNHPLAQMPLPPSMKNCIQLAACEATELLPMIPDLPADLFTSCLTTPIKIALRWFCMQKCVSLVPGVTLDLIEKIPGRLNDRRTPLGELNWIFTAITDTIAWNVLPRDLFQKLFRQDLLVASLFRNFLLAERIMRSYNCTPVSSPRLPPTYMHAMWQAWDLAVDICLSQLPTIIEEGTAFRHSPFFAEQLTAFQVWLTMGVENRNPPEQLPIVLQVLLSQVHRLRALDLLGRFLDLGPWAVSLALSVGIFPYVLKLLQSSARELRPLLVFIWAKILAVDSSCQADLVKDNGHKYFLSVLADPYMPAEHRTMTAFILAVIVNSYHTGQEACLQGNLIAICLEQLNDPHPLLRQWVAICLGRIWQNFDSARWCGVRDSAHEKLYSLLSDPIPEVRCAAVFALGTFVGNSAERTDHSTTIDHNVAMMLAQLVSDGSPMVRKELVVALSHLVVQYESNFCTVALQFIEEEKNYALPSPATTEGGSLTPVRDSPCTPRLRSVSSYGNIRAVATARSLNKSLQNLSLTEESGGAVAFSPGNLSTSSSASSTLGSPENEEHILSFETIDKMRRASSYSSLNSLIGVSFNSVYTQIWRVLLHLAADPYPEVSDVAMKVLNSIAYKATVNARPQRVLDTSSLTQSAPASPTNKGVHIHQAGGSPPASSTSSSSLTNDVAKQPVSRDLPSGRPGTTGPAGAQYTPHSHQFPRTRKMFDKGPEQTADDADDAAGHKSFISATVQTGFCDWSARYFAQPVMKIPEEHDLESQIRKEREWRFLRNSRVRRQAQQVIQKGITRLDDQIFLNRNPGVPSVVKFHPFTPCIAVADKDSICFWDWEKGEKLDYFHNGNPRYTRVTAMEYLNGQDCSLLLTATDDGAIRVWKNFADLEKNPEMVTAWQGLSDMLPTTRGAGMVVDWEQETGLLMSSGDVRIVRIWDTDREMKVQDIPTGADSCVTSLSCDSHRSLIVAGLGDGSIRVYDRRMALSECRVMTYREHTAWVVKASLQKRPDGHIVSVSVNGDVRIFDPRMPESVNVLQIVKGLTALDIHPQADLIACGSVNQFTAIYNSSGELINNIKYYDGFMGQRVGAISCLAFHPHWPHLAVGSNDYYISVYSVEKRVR
UniProt P03186, residues 1-246: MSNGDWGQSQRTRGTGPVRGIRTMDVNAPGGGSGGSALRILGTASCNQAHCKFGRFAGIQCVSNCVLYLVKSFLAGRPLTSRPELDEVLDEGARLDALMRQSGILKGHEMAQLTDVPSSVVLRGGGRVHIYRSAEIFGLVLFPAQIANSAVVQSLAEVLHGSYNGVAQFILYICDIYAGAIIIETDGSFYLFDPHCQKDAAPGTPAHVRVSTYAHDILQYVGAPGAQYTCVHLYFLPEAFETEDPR

Molecular target: myc-Raptor (UniProt Q8N122)
Experiment: co-IP

In the case of “Flag-tagged BPLF1 1-246 (from UniProt P03186 1-246) (domain or fragment)”, the binding is reported as “binds”.
